Laboratory results taken from patent US10953094B2, “Pulse photodynamic treatment of photodamaged skin” (GALDERMA RESEARCH & DEVELOPMENT, priority 2013, dated 2021).
At least one compound was matched to its structure with a doubt left.

What was measured:
[1] = Pulse time investigation (Method B), PPIX formation in healthy volunteers; type: in vivo, human; conditions: pulse exposure vs conventional 3-hour exposure
Protocol: (§1) The formation of PPIX after 3 hours is seen in FIG. 8, and the relation to inflammation is seen in FIG. 9. […] The results are illustrated in Column 3 in FIGS. 4, 5, 6, and 7. […] Pain level is not changed.
Twenty-four healthy male volunteers of Scandinavian ancestry were included in the study (mean age 30 years, range 20-51). A treatment area was selected on the inside of both forearms of the volunteer. Each treatment area was divided into four minor treatment fields of the size 2×5 cm with at least 3 cm between each field using a prefabricated flexible template. In order to imitate skin lesions all fields were tape stripped 10 times with occlusive dressing before treatment (Tegaderm™ Roll, 3M, Glostrup, Denmark). […]
All fields were covered with light-impermeable, occlusive dressing. […] During and after illumination pain was recorded. […]
5-MAL-induced PpIX fluorescence was depicted non-invasively using a fluorescence camera (Medeikonos AB, Gothenburg, Sweden). The amount of PpIX fluorescence was calculated from the photographs by the program MatLab® (MatLab®, MathWorks, Natic, US). The amount of fluorescence was measured before tape stripping and cream application (baseline) and before and after illumination.
The photo bleaching is then the difference in PpIX fluorescence (AU) calculated from the pre and post illumination images.

[2] = Pulse exposure 30 min (Method A), investigation of efficacy and inflammation; type: in vivo; conditions: 30 min pulse exposure vs conventional 3-hour exposure
Protocol: as §1

COC(=O)CCC(=O)CN [Metvix, methyl aminolevulinate]
PPIX concentration [1]: clearly lower | cure rate [2]: without affecting
